Earlier results, collected in US20120039796A1, “Novel method for creating, suspending and stabilizing electronically modified oxygen derivatives, along with creating, suspending and stabilizing electronically modified reaction intermediates, in a bio compatible fluorocarbon suspension, for the purpose of inducing a cascading immune response in …” (priority 2010, published 2012).
For at least one compound, name, drawing or mass did not settle the structure.

Molecular target: T1, TrxR (Homo sapiens, UniProt Q16881)
T1 sequence (Q16881 151-649 limits assumed): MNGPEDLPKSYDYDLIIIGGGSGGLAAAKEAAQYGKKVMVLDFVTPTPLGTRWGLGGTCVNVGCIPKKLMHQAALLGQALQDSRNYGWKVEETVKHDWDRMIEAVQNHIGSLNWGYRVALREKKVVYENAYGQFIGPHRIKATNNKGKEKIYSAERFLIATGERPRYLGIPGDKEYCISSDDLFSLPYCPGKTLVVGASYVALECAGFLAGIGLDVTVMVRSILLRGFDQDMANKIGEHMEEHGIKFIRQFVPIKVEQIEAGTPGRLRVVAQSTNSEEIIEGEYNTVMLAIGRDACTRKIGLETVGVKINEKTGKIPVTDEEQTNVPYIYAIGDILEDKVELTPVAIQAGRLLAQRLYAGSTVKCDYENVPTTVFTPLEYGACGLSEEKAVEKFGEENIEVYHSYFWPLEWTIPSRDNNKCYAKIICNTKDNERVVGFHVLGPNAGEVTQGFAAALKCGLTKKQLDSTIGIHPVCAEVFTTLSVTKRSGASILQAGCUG
Settings: cited from earlier work

Oc1ccc(-c2[o+]c3cc(O)cc(O)c3cc2O)cc1 [pelargonidin]
inhibitory effect on TrxR: NADPH-, concentration-, and time-dependent inhibitory effect
